We go through one molecule from article PMC4525488, “Structure-based Mechanistic Insights into Terminal Amide Synthase in Nosiheptide-Represented Thiopeptides Biosynthesis” (Scientific Reports, 2015).

These are yes or no findings as the source states them, for the method shown. Some binding calls cover weakened binding; strength is not graded here.

For the assay, the target named is T1, C-terminal NosA_(112-151) peptide (UniProt C6FX40).
T1 sequence: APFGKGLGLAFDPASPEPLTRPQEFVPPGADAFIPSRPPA
In words: NMR titration; 1H-15N HSQC of 15N-labeled NosA_(112-151) free and with unlabeled NosA_(1-111) (NosA_(1-111) : NosA_(112-151) = 1:1.2), 293 K, 50 mM Na2HPO4, 50 mM NaCl, 0.01% NaN3, pH 7.0, 10% D2O; both purified.

B1: truncated NosA_(1-111) variant (domain or fragment, UniProt C6FX40 1-111, looked up)
chain: MTEHPAQQLYCTVVLWDLSRSAATVASLRAYLRDHAVDAYTTVPGLRQKTWISSTGPEGEQWGAVYLWDSPEAAYGRPPGVSKVVELIGYRPTERRYYSVEAATEGPAAAA
notes: NosA, terminal amide synthase of nosiheptide biosynthesis
Regarding B1, the binding entry is “binds weakly”.
